Measured values reported in PMC11358092, “Caspofungin enhances the potency of rifampin against Gram-negative bacteria” (Frontiers in Microbiology, 2024).

Tested on: E. coli MG1655
Assay: High-throughput screening of FDA-approved drug library for antibiotic adjuvants (growth inhibition, OD600)
Type: cell-based, Escherichia coli

| SMILES | Growth inhibition, Compound [%] |
| --- | --- |
| CCCCCCCCCCCCCCCC[n+]1ccccc1 [Cetylpyridinium chloride monohydrate] | 87 |
| CCCCCCCCCCCCCCCC[n+]1ccccc1 [Cetylpyridinium Chloride] | 78 |
